Values quoted from earlier work in patent publication US20030185888A1, “Volume efficient controlled release dosage form” (priority 2002, published 2003).

Conditions: in vivo

COC(=O)C1=C(C)NC(C)=C(C(=O)OC)C1c1ccccc1[N+](=O)[O-] [Nifedipine, nifedipine]
biological half-life: about 2 hours
